Assay results published in patent US7982053B2, “Peptide deformylase inhibitors” (GlaxoSmithKline LLC, priority 2005, dated 2011).
pIC50: −log10 of the molar value. Read-outs that look alike come from different tables or passages of the source. Some entries share one result that the patent states for a list of compounds.

Target: T1, bacterial PDF (S. aureus or E. coli PDF, Def1 enzyme) (UniProt P68826)
T1 sequence (P68826 1-183): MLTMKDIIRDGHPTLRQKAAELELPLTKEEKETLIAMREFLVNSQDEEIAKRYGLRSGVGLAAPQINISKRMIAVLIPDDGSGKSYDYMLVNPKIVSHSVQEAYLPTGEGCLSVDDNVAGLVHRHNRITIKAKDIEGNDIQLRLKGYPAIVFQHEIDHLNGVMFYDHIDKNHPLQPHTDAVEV
Assay: Bacterial PDF Assay (formate dehydrogenase-coupled continuous enzyme-linked assay)
Assay type: biochemical

[1] = 25° C., substrate f-Met-Ala-Ser at KM, read-out: IC50 against bacterial PDF
[2] = read-out: IC50 against bacterial PDF, 25° C., substrate f-Met-Ala-Ser at KM

SMILES	pIC50 [1]	pIC50 [2]
O=CN(O)C[C@@H](CC1CCCC1)C(=O)N1CCC[C@H]1C(=O)NC(=O)c1cccs1 [Example 28, 1-((2R)-3-cyclopentyl-2-{[formyl(hydroxy)amino]methyl}propanoyl)-N-(2-thienylcarbonyl)-L-prolinamide]	≥ 7.00	–
O=CN(O)C[C@@H](CC1CCCC1)C(=O)N1CCC[C@H]1C(=O)NC(=O)c1ccc(-n2ccnc2)cc1 [Example 26, 1-((2R)-3-cyclopentyl-2-{[formyl(hydroxy)amino]methyl}propanoyl)-N-{[4-(1H-imidazol-1-yl)phenyl]carbonyl}-L-prolinamide]	≥ 7.00	–
O=CN(O)C[C@@H](CC1CCCC1)C(=O)N1CCC[C@H]1C(=O)NC(=O)c1ccc(N2CCOCC2)nc1 [Example 20, N-[1-((2R)-3-cyclopentyl-2-{[formyl(hydroxy)amino]methyl}propanoyl)-L-prolyl]-6-(4-morpholinyl)-3-pyridinecarboxamide]	–	≥ 7.00
O=CN(O)C[C@@H](CC1CCCC1)C(=O)N1CCC[C@H]1C(=O)NC(=O)OC1CCS(=O)(=O)CC1 [Example 45, 1-((2R)-3-cyclopentyl-2-{[formyl(hydroxy)amino]methyl}propanoyl)-N-{[(1,1-dioxidotetrahydro-2H-thiopyran-4-yl)oxy]carbonyl}-L-prolinamide]	≥ 7.00	–
O=CN(O)C[C@@H](CC1CCCC1)C(=O)N1CCC[C@H]1C(=O)NC(=O)OC1CCOCC1 [Example 24, 1-((2R)-3-cyclopentyl-2-{[formyl(hydroxy)amino]methyl}propanoyl)-N-[(tetrahydro-2H-pyran-4-yloxy)carbonyl]-L-prolinamide]	≥ 7.00	–
C=CCNC(=O)NC(=O)[C@@H]1CCCN1C(=O)[C@H](CC1CCCC1)CN(O)C=O [Example 77, 1-((2R)-3-cyclopentyl-2-{[formyl(hydroxy)amino]methyl}propanoyl)-N-[(2-propen-1-ylamino)carbonyl]-L-prolinamide]	≥ 7.00	–
N[C@H]1C[C@H](OC(=O)NC(=O)[C@@H]2CCCN2C(=O)[C@H](CC2CCCC2)CN(O)C=O)C1 [Example 34, N-{[(trans-3-aminocyclobutyl)oxy]carbonyl}-1-((2R)-3-cyclopentyl-2-{[formyl(hydroxy)amino]methyl}propanoyl)-L-prolinamide]	≥ 7.00	–
CN(C)C(=O)NC(=O)[C@@H]1CCCN1C(=O)[C@H](CC1CCCC1)CN(O)C=O [Example 78, 1-((2R)-3-cyclopentyl-2-{[formyl(hydroxy)amino]methyl}propanoyl)-N-[(dimethylamino)carbonyl]-L-prolinamide]	≥ 7.00	–
Nc1ccc(CCNC(=O)NC(=O)[C@@H]2CCCN2C(=O)[C@H](CC2CCCC2)CN(O)C=O)cc1 [Example 107, N-({[2-(4-aminophenyl)ethyl]amino}carbonyl)-1-((2R)-3-cyclopentyl-2-{[formyl(hydroxy)amino]methyl}propanoyl)-L-prolinamide]	≥ 7.00	–
COC(=O)NC(=O)[C@H]1N(C(=O)[C@H](CC2CCCC2)CN(O)C=O)CCC1(C)C [Example 80, 1-((2R)-3-cyclopentyl-2-{[formyl(hydroxy)amino]methyl}propanoyl)-3,3-dimethyl-N-[(methyloxy)carbonyl]-L-prolinamide]	≥ 7.00	–
O=CN(O)C[C@@H](CC1CCCC1)C(=O)N1CCC[C@H]1C(=O)NC(=O)NCCCO [Example 108, 1-((2R)-3-cyclopentyl-2-{[formyl(hydroxy)amino]methyl}propanoyl)-N-{[(3-hydroxypropyl)amino]carbonyl}-L-prolinamide]	≥ 7.00	–
O=CN(O)C[C@@H](CC1CCCC1)C(=O)N1CCC[C@H]1C(=O)NC(=O)NCCc1ccccn1 [Example 91, 1-((2R)-3-cyclopentyl-2-{[formyl(hydroxy)amino]methyl}propanoyl)-N-({[2-(2-pyridinyl)ethyl]amino}carbonyl)-L-prolinamide]	≥ 7.00	–
O=CN(O)C[C@@H](CC1CCCC1)C(=O)N1CCC[C@H]1C(=O)NC(=O)OC1CCSCC1 [Example 44, 1-((2R)-3-cyclopentyl-2-{[formyl(hydroxy)amino]methyl}propanoyl)-N-[(tetrahydro-2H-thiopyran-4-yloxy)carbonyl]-L-prolinamide]	≥ 7.00	–
CCOC(CCNC(=O)NC(=O)[C@@H]1CCCN1C(=O)[C@H](CC1CCCC1)CN(O)C=O)OCC [Example 145, N-({[3,3-bis(ethyloxy)propyl]amino}carbonyl)-1-((2R)-3-cyclopentyl-2-{[formyl(hydroxy)amino]methyl}propanoyl)-L-prolinamide]	≥ 7.00	–
CCN(CC)CCNC(=O)NC(=O)[C@@H]1CCCN1C(=O)[C@H](CC1CCCC1)CN(O)C=O [Example 141, 1-((2R)-3-cyclopentyl-2-{[formyl(hydroxy)amino]methyl}propanoyl)-N-({[2-(diethylamino)ethyl]amino}carbonyl)-L-prolinamide]	≥ 7.00	–
CC(C)C(=O)NC(=O)[C@@H]1CCCN1C(=O)[C@H](CC1CCCC1)CN(O)C=O [Example 49, 1-((2R)-3-cyclopentyl-2-{[formyl(hydroxy)amino]methyl}propanoyl)-N-(2-methylpropanoyl)-L-prolinamide]	≥ 7.00	–
CCN(CC)CCCNC(=O)NC(=O)[C@@H]1CCCN1C(=O)[C@H](CC1CCCC1)CN(O)C=O [Example 143, 1-((2R)-3-cyclopentyl-2-{[formyl(hydroxy)amino]methyl}propanoyl)-N-({[3-(diethylamino)propyl]amino}carbonyl)-L-prolinamide]	≥ 7.00	–
O=CN(O)C[C@@H](CC1CCCC1)C(=O)N1CCC[C@H]1C(=O)NC(=O)c1cccnc1 [Example 52, N-[1-((2R)-3-cyclopentyl-2-{[formyl(hydroxy)amino]methyl}propanoyl)-L-prolyl]-3-pyridinecarboxamide]	≥ 7.00	–
CCCCC[C@H](CN(O)C=O)C(=O)N1CCC[C@H]1C(=O)NC(=O)C1CCCC1 [Example 60, N-(cyclopentylcarbonyl)-1-((2R)-2-{[formyl(hydroxy)amino]methyl}heptanoyl)-L-prolinamide]	≥ 7.00	–
Cc1cc(C(=O)NC(=O)[C@@H]2CCCN2C(=O)[C@H](CC2CCCC2)CN(O)C=O)nn1C [Example 7, 1-((2R)-3-cyclopentyl-2-{[formyl(hydroxy)amino]methyl}propanoyl)-N-[(1,5-dimethyl-1H-pyrazol-3-yl)carbonyl]-L-prolinamide]	–	≥ 7.00
Cc1cc(NC(=O)NC(=O)[C@@H]2CCCN2C(=O)[C@H](CC2CCCC2)CN(O)C=O)n[nH]1 [Example 138]	≥ 7.00	–
CC1(C)CCN(C(=O)[C@H](CC2CCCC2)CN(O)C=O)[C@@H]1C(=O)NC(N)=O [Example 109, N-(aminocarbonyl)-1-((2R)-3-cyclopentyl-2-{[formyl(hydroxy)amino]methyl}propanoyl)-3,3-dimethyl-L-prolinamide]	≥ 7.00	–
O=CN(O)C[C@@H](CC1CCCC1)C(=O)N1CCC[C@H]1C(=O)NC(=O)N[C@H]1CCOC1 [Example 121, 1-((2R)-3-cyclopentyl-2-{[formyl(hydroxy)amino]methyl}propanoyl)-N-{[(3S)-tetrahydro-3-furanylamino]carbonyl}-L-prolinamide]	≥ 7.00	–
O=CN(O)C[C@@H](CC1CCCC1)C(=O)N1CCC[C@H]1C(=O)NC(=O)NCCc1ccnnc1 [Example 123, 1-((2R)-3-cyclopentyl-2-{[formyl(hydroxy)amino]methyl}propanoyl)-N-({[2-(4-pyridazinyl)ethyl]amino}carbonyl)-L-prolinamide]	≥ 7.00	–
